Results from patent US20060134102A1, “Lymphotoxin beta receptor agents in combination with chemotherapeutic agents” (Biogen Idec MA Inc., priority 2002, published 2006).

Test system: KM-20L2 human colorectal adenocarcinoma
Assay: KM-20L2 xenograft model: growth of established KM-20L2 human colorectal tumors in athymic nude mice (tumor volume/weight, % T/C, Fa, Combination Index)
Assay type: in vivo
Conditions: Mean

## Nc1ccn([C@@H]2O[C@H](CO)[C@@H](O)C2(F)F)c(=O)n1 [Gemcitabine, gemcitabine, reference compound]
Day 16
  Dose-Effect Curve Slope: 1.23
  Dose-Effect Curve Y-Intercept: −1.42
Day 20
  Dose-Effect Curve Slope: 1.36
  Dose-Effect Curve Y-Intercept: −1.37
Day 23
  Dose-Effect Curve Slope: 1.31
  Dose-Effect Curve Y-Intercept: −1.35
Day 27
  Dose-Effect Curve Slope: 1.31
  Dose-Effect Curve Y-Intercept: −1.45
Day 30
  Dose-Effect Curve Slope: 1.12
  Dose-Effect Curve Y-Intercept: −1.29
Day 34
  Dose-Effect Curve Slope: 0.86
  Dose-Effect Curve Y-Intercept: −1.00
Day 37
  Dose-Effect Curve Slope: 0.90
  Dose-Effect Curve Y-Intercept: −1.06
Day 41
  Dose-Effect Curve Slope: 0.87
  Dose-Effect Curve Y-Intercept: −1.07
Day 43
  Dose-Effect Curve Slope: 0.98
  Dose-Effect Curve Y-Intercept: −1.20
